# Experimental data from the supplement of paper PMC9135407.
# Several values for one entry are separate records, joined by “and”; a condition that tells them apart may be missing. Equal values may be shown once. Where a name gives a salt, the structure may show the parent alone. ± gives the standard deviation of the averaged measurements. The list shows a part of the results. Part of the spread comes from offsets between plates or batches.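 Culture-activated primary human stellate myofibroblasts, where regained lipid droplets signal inactivation. Value: share of Hoechst-counted cells above a per-plate Bodipy cutoff, in duplicate wells, with DMSO negative and nortriptyline positive controls on each plate. Hits: a control-normalized score above the plate's top-tenth-percentile nortriptyline wells, or one of a plate's three best wells. Final well concentrations are not given.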
# Tested on: primary human hepatic stellate cells (donor 1)
# Assay: percent Bodipy-positive cells; higher = more lipid droplet accumulation
# Conditions: 48 h
# [1] = library stock concentration: 3.33 mM
# [2] = library stock concentration: 10 mM
# [3] = library stock concentration: 80 uM
# [4] = library stock concentration: 400 uM
# [5] = library stock concentration: 1 mM
compound,measurement,setting,value
CCN1CCN(Cc2ccc(Nc3ncc(F)c(-c4cc(F)c5nc(C)n(C(C)C)c5c4)n3)nc2)CC1.CS(=O)(=O)O,percent Bodipy-positive cells,[1],97.73 ± 0.43%
same,percent Bodipy-positive cells,[2],98 ± 1.1%
CCC(=O)OCC(=O)[C@@]1(OC(=O)CC)[C@@H](C)C[C@H]2[C@@H]3CCC4=CC(=O)C=C[C@]4(C)[C@@]3(Cl)[C@@H](O)C[C@@]21C [Beclomethasone dipropionate],percent Bodipy-positive cells,,6.47 ± 0.79%
same,percent Bodipy-positive cells,[1],10.1 ± 0.3%
same,percent Bodipy-positive cells,[2],17.4% and 11.6% and 30.9%
COc1nc(N)nc2c1ncn2[C@@H]1O[C@H](CO)[C@@H](O)[C@@H]1O [Nelarabine],percent Bodipy-positive cells,[1],16 ± 6%
same,percent Bodipy-positive cells,[2],18.7 ± 6.1%
O=C1NC(=O)c2c1c1c3ccccc3[nH]c1n1cncc21 [Isogranulatimide],percent Bodipy-positive cells,[1],14 ± 8.5%
O=C(CCCN1CCC(O)(c2cccc(C(F)(F)F)c2)CC1)c1ccc(F)cc1 [Trifluperidol 2HCl],percent Bodipy-positive cells,library stock concentration: 4.9 mM,26.2 ± 0.29%
CN(C)CCCn1cc(C2=C(c3c[nH]c4ccccc34)C(=O)NC2=O)c2ccccc21,percent Bodipy-positive cells,[1],53.8 ± 2.3%
same,percent Bodipy-positive cells,[2],84.1 ± 2%
same,percent Bodipy-positive cells,library stock concentration: 12.1 mM,65.5 ± 15%
CN(C)CCCn1cc(C2=C(c3c[nH]c4ccccc34)C(=O)NC2=O)c2ccccc21 [Bisindolylmaleimide I],percent Bodipy-positive cells,[1],56.2 ± 2.4%
COc1ccccc1N1CCN(CCCNc2cc(=O)n(C)c(=O)n2C)CC1 [Urapidil],percent Bodipy-positive cells,[2],56.3 ± 22%
COc1ccccc1N1CCN(CCCNc2cc(=O)n(C)c(=O)n2C)CC1,percent Bodipy-positive cells,[2],13.9 ± 0.24%
COc1ccccc1N1CCN(CCCNc2cc(=O)n(C)c(=O)n2C)CC1 [Urapidil HCl],percent Bodipy-positive cells,[1],5.81 ± 2.8%
same,percent Bodipy-positive cells,[2],23 ± 14%
COc1ccccc1N1CCN(CCCNc2cc(=O)n(C)c(=O)n2C)CC1 [Urapidil hydrochloride],percent Bodipy-positive cells,,7.87 ± 3%
same,percent Bodipy-positive cells,[2],20.6% and 6.63%
O=C(Nc1cccc(Nc2ncc(Br)c(NCCc3cnc[nH]3)n2)c1)N1CCCC1,percent Bodipy-positive cells,[3],10.3 ± 2.4%
same,percent Bodipy-positive cells,[4],15.4% and 23.6%
same,percent Bodipy-positive cells,library stock concentration: 2 mM,13.3% and 29%
same,percent Bodipy-positive cells,[1],7.37 ± 4.8%
same,percent Bodipy-positive cells,[2],65.8% and 87.6%
CN/C(=N\c1ccc(C2=NNC(=O)CC2C)cc1)NC#N (centres undefined) [Siguazodan],percent Bodipy-positive cells,library stock concentration: 7 mM,10 ± 2.8%
same,percent Bodipy-positive cells,[2],9.49 ± 1.1%
CCCCCCCCCCOCCC(=O)O [4-Oxatetradecanoic acid],percent Bodipy-positive cells,[5],35.1 ± 8.1%
C=C1C[C@H](O)[C@H](C/C=C\CCCC(=O)O)[C@H]1/C=C/[C@@H](O)CCCCC [11-deoxy-11-methylene Prostaglandin D2],percent Bodipy-positive cells,[5],12.4 ± 3.5%
CSc1ccccc1N1CCN(CCCCCC(=O)NC2CCCc3ccccc32)CC1.Cl (centres undefined),percent Bodipy-positive cells,[2],93.6 ± 1.8%
"CCCCCC=CCC=CCC=CCC=CCCCCCC(=O)O [Adrenic acid (22:4, n-6)]",percent Bodipy-positive cells,[5],21.9 ± 11%
c1cn2cc(-c3ccc4cn[nH]c4c3)nc(Nc3ccc(N4CCOCC4)cc3)c2n1 [Entospletinib],percent Bodipy-positive cells,[3],8.61 ± 2.4%
same,percent Bodipy-positive cells,[4],9.28 ± 0.98%
O=C1CCC(N2C(=O)c3ccccc3C2=O)C(=O)N1 (centres undefined) [Thalidomide],percent Bodipy-positive cells,,26.2 ± 0.7%
same,percent Bodipy-positive cells,[1],5.75 ± 1.7%
same,percent Bodipy-positive cells,library stock concentration: 7.7 mM,7.06% and 8.42%
same,percent Bodipy-positive cells,library stock concentration: 19.4 mM,9.47 ± 6.1%
O=C1CCC(N2C(=O)c3ccccc3C2=O)C(=O)N1 (centres undefined) [(?)-Thalidomide],percent Bodipy-positive cells,[2],22.2 ± 0.5%
O=C(OC[C@@H]1O[C@H]1c1ccccc1)Oc1ccc([N+](=O)[O-])cc1,percent Bodipy-positive cells,[5],10.1 ± 1.8%
CN(C)CCCN1c2ccccc2CCc2ccc(Cl)cc21.Cl [Clomipramine HCl],percent Bodipy-positive cells,[2],91.3 ± 2.3%
O=C(Nc1cccc2cccnc12)c1ccc(N2C(=O)[C@@H]3[C@H](C2=O)[C@@H]2C=C[C@H]3C2)cc1 [endo-IWR 1],percent Bodipy-positive cells,[2],7.83 ± 0.83%
C=CCCCCCCCCC(=O)O [Undecylenic acid],percent Bodipy-positive cells,library stock concentration: 10.9 mM,9.58 ± 2.2%
CC1(C)S[C@@H]2[C@H](NC(=O)Cc3ccccc3)C(=O)N2[C@H]1C(=O)O [Benzylpenicillin sodium],percent Bodipy-positive cells,,12 ± 6.3%
CC1(C)S[C@@H]2[C@H](NC(=O)Cc3ccccc3)C(=O)N2[C@H]1C(=O)O [Benzathine benzylpenicillin],percent Bodipy-positive cells,,16.8 ± 8.9%
CC1(C)S[C@@H]2[C@H](NC(=O)Cc3ccccc3)C(=O)N2[C@H]1C(=O)O [Pfizerpen],percent Bodipy-positive cells,[2],24.8 ± 6.9%
CC1(C)S[C@@H]2[C@H](NC(=O)Cc3ccccc3)C(=O)N2[C@H]1C(=O)O [Penicillin g potassium],percent Bodipy-positive cells,library stock concentration: 5.4 mM,1.94 ± 2.7%
CC1(C)S[C@@H]2[C@H](NC(=O)Cc3ccccc3)C(=O)N2[C@H]1C(=O)O [Penicillin G Sodium],percent Bodipy-positive cells,[1],10.1 ± 9.1%
same,percent Bodipy-positive cells,[2],44.2 ± 16%
CC1(C)S[C@@H]2[C@H](NC(=O)Cc3ccccc3)C(=O)N2[C@H]1C(=O)O [Benzyl penicillin potassium],percent Bodipy-positive cells,[2],19 ± 16%
CCCCc1nc(Cl)c(CO)n1Cc1ccc(-c2ccccc2-c2nnn[nH]2)cc1 [LOSARTAN Potassium],percent Bodipy-positive cells,[2],6.86 ± 0.54%
CCCCc1nc(Cl)c(CO)n1Cc1ccc(-c2ccccc2-c2nnn[nH]2)cc1 [Losartan Potassium (DuP 753)],percent Bodipy-positive cells,[1],12.5 ± 7.6%
same,percent Bodipy-positive cells,[2],27.9 ± 20%
CCCCc1nc(Cl)c(CO)n1Cc1ccc(-c2ccccc2-c2nnn[nH]2)cc1 [Losartan],percent Bodipy-positive cells,library stock concentration: 4.7 mM,6.65 ± 3.3%
same,percent Bodipy-positive cells,[2],39.6 ± 1.5%
CCN(CC)CCNC(=O)COc1ccc(OC)cc1 [Mefexamide hydrochloride],percent Bodipy-positive cells,,31.7 ± 20%
CCN(CC)CCNC(=O)COc1ccc(OC)cc1 [Mefexamide],percent Bodipy-positive cells,library stock concentration: 6.3 mM,20.9 ± 3.6%
same,percent Bodipy-positive cells,[2],26.5 ± 4.7%
Cc1nc2n(c(=O)c1CCN1CCC(c3noc4cc(F)ccc34)CC1)CCCC2O (centres undefined) [Paliperidone],percent Bodipy-positive cells,[2],65.5 ± 13%
CC(=O)OCC1=C(C(=O)O)N2C(=O)[C@@H](NC(=O)Cc3cccs3)[C@H]2SC1 [Cephalothin sodium],percent Bodipy-positive cells,library stock concentration: 4.8 mM,2.17 ± 0.79%
CC(=O)OCC1=C(C(=O)O)N2C(=O)[C@@H](NC(=O)Cc3cccs3)[C@H]2SC1 [Cephalothin sodium salt],percent Bodipy-positive cells,,10.5 ± 0.44%

# 3 entries from above, as tab-separated lines.
compound	measurement	setting	value
CCN1CCN(Cc2ccc(Nc3ncc(F)c(-c4cc(F)c5nc(C)n(C(C)C)c5c4)n3)nc2)CC1.CS(=O)(=O)O	percent Bodipy-positive cells	[2]	98 ± 1.1%
CCC(=O)OCC(=O)[C@@]1(OC(=O)CC)[C@@H](C)C[C@H]2[C@@H]3CCC4=CC(=O)C=C[C@]4(C)[C@@]3(Cl)[C@@H](O)C[C@@]21C [Beclomethasone dipropionate]	percent Bodipy-positive cells		6.47 ± 0.79%
same	percent Bodipy-positive cells	[1]	10.1 ± 0.3%
